Experimental data taken from article PMC7389436.
No constants are given. Whether binding was seen depends on the method and setting. Binding seen in cells or lysates may run through a third protein. Some entries that bind do so weakly or less than the wild type.

Protein sequences, listed by entry. Tags and fused reporters are not part of them.
UniProt D4A523: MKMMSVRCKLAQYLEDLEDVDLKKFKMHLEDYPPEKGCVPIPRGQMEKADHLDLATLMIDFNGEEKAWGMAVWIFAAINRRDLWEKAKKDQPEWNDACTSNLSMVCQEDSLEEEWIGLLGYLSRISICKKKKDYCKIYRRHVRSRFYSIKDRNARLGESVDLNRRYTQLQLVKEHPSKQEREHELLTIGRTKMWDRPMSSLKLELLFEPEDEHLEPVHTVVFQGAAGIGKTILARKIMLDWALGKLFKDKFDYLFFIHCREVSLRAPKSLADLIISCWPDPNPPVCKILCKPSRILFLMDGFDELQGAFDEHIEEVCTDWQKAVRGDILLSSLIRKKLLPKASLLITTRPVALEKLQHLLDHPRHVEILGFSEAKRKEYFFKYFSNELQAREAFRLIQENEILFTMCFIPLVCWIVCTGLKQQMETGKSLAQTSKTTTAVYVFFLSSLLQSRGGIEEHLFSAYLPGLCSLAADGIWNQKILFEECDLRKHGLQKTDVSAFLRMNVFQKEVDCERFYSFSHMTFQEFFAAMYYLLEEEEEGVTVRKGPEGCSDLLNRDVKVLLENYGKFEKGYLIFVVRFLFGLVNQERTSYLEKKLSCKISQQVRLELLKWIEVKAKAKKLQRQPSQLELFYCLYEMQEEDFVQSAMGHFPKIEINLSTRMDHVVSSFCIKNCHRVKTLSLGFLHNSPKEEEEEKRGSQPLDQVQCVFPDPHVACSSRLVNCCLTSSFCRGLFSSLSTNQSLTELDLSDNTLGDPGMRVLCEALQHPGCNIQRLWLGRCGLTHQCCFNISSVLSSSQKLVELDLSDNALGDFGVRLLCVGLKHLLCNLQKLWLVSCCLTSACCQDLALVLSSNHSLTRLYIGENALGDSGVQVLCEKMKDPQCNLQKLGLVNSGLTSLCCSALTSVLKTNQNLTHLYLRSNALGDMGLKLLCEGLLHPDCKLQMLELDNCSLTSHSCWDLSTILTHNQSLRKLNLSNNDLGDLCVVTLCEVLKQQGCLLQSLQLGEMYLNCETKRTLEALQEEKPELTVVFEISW

T1: thioredoxin interacting protein (TXNIP) (UniProt Q5M7W1)
T1 sequence: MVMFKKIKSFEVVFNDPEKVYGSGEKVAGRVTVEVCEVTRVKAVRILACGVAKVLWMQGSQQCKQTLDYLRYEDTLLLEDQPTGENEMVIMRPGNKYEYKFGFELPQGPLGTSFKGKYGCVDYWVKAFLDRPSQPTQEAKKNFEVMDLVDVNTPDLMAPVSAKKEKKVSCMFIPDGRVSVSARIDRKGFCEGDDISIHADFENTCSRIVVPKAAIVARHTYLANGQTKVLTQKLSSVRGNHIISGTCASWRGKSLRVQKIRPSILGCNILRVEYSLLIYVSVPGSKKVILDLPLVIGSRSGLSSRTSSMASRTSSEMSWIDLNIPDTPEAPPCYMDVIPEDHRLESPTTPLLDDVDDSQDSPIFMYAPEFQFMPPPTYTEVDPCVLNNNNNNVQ

B1: thioredoxin interacting protein (TXNIP) (protein, UniProt Q5M7W1 1-394)
chain: MVMFKKIKSFEVVFNDPEKVYGSGEKVAGRVTVEVCEVTRVKAVRILACGVAKVLWMQGSQQCKQTLDYLRYEDTLLLEDQPTGENEMVIMRPGNKYEYKFGFELPQGPLGTSFKGKYGCVDYWVKAFLDRPSQPTQEAKKNFEVMDLVDVNTPDLMAPVSAKKEKKVSCMFIPDGRVSVSARIDRKGFCEGDDISIHADFENTCSRIVVPKAAIVARHTYLANGQTKVLTQKLSSVRGNHIISGTCASWRGKSLRVQKIRPSILGCNILRVEYSLLIYVSVPGSKKVILDLPLVIGSRSGLSSRTSSMASRTSSEMSWIDLNIPDTPEAPPCYMDVIPEDHRLESPTTPLLDDVDDSQDSPIFMYAPEFQFMPPPTYTEVDPCVLNNNNNNVQ

Experiments:
[1] = biological target: T1, thioredoxin interacting protein (TXNIP); test: co-IP; Catch and Release Reversible Immunoprecipitation System Kit; IP with antibody to TXNIP or antibody to NLRP3; rabbit/mouse IgG as negative control; sample not stated
[2] = biological target: NLR family pyrin domain-containing 3 (NLRP3) (UniProt D4A523); test: as above

Molecule	binding [1]	binding [2]
NLR family pyrin domain-containing 3 (NLRP3) (from UniProt D4A523 1-1035)	binds	–
B1	–	binds
